The mice bore no tumour; each value counts animals alive of those treated. Counts of survivors are from the toxicity check (mostly the fifth day) where no day follows; animals may have died later. Schedules are NCI's codes, read here as Q, the interval in days (D) or hours (H), X, the number of doses. Signs of the kind (2×) stand for listed records that agree. Some doses were run more than once; the values are given in rising order.
System: B6D2F1 mice, nontumored toxicity test, survival
Assay: NCI In Vivo Anticancer Drug Screen. Data for tumor model Nontumored Animals (Toxicity Test) in B6D2F1 (BDF1) mice

Measured: survivor count

Cc1c2ccncc2c(C)c2c1[nH]c1ccccc12
0 of 8: dose: 128.0 mg/kg/injection, schedule: Q01DX009 (ip), vehicle: water | dose: 256.0 mg/kg/injection, schedule: Q01DX001 (ip), vehicle: other | dose: 256.0 mg/kg/injection, schedule: Q04DX003 (ip), vehicle: other
0 of 8 (2×): dose: 32.0 mg/kg/injection, schedule: Q03HX008 (ip), vehicle: water | dose: 64.0 mg/kg/injection, schedule: Q03HX008 (ip), vehicle: water
4 of 8: dose: 128.0 mg/kg/injection, schedule: Q04DX003 (ip), vehicle: other
4 of 8 and 8 of 8: dose: 16.0 mg/kg/injection, schedule: Q03HX008 (ip), vehicle: water
8 of 8: dose: 1.0 mg/kg/injection, schedule: Q03HX024 (ip), vehicle: water | dose: 2.0 mg/kg/injection, schedule: Q03HX008 (ip), vehicle: water | dose: 2.0 mg/kg/injection, schedule: Q03HX008 (sc), vehicle: water | dose: 2.0 mg/kg/injection, schedule: Q03HX016 (ip), vehicle: water | dose: 2.0 mg/kg/injection, schedule: Q03HX024 (ip), vehicle: water | dose: 4.0 mg/kg/injection, schedule: Q01DX009 (ip), vehicle: water | dose: 4.0 mg/kg/injection, schedule: Q01DX009 (sc), vehicle: water | dose: 4.0 mg/kg/injection, schedule: Q03HX008 (sc), vehicle: water | dose: 4.0 mg/kg/injection, schedule: Q03HX016 (ip), vehicle: water | dose: 4.0 mg/kg/injection, schedule: Q03HX024 (ip), vehicle: water | dose: 8.0 mg/kg/injection, schedule: Q01DX009 (ip), vehicle: water | dose: 8.0 mg/kg/injection, schedule: Q01DX009 (sc), vehicle: water | dose: 8.0 mg/kg/injection, schedule: Q03HX008 (sc), vehicle: water | dose: 8.0 mg/kg/injection, schedule: Q03HX016 (ip), vehicle: water | dose: 8.0 mg/kg/injection, schedule: Q03HX024 (ip), vehicle: water | dose: 8.0 mg/kg/injection, schedule: Q04DX003 (ip), vehicle: other | dose: 8.0 mg/kg/injection, schedule: Q08DX002 (ip), vehicle: other | dose: 16.0 mg/kg/injection, schedule: Q01DX001 (ip), vehicle: other | dose: 16.0 mg/kg/injection, schedule: Q01DX001 (sc), vehicle: other | dose: 16.0 mg/kg/injection, schedule: Q01DX009 (ip), vehicle: water | dose: 16.0 mg/kg/injection, schedule: Q01DX009 (sc), vehicle: water | dose: 16.0 mg/kg/injection, schedule: Q03HX008 (sc), vehicle: water | dose: 16.0 mg/kg/injection, schedule: Q04DX003 (ip), vehicle: other | dose: 16.0 mg/kg/injection, schedule: Q08DX002 (ip), vehicle: other | dose: 32.0 mg/kg/injection, schedule: Q01DX001 (ip), vehicle: other | dose: 32.0 mg/kg/injection, schedule: Q01DX001 (sc), vehicle: other | dose: 32.0 mg/kg/injection, schedule: Q01DX009 (sc), vehicle: water | dose: 32.0 mg/kg/injection, schedule: Q03HX008 (sc), vehicle: water | dose: 32.0 mg/kg/injection, schedule: Q08DX002 (ip), vehicle: other | dose: 64.0 mg/kg/injection, schedule: Q01DX001 (ip), vehicle: other | dose: 64.0 mg/kg/injection, schedule: Q01DX001 (sc), vehicle: other | dose: 64.0 mg/kg/injection, schedule: Q01DX009 (sc), vehicle: water | dose: 64.0 mg/kg/injection, schedule: Q04DX003 (ip), vehicle: other | dose: 64.0 mg/kg/injection, schedule: Q08DX002 (ip), vehicle: other | dose: 128.0 mg/kg/injection, schedule: Q01DX001 (sc), vehicle: other | dose: 256.0 mg/kg/injection, schedule: Q01DX001 (sc), vehicle: other
7 of 8: dose: 1.0 mg/kg/injection, schedule: Q03HX016 (ip), vehicle: water | dose: 16.0 mg/kg/injection, schedule: Q03HX016 (ip), vehicle: water | dose: 16.0 mg/kg/injection, schedule: Q03HX024 (ip), vehicle: water | dose: 32.0 mg/kg/injection, schedule: Q01DX009 (ip), vehicle: water | dose: 32.0 mg/kg/injection, schedule: Q04DX003 (ip), vehicle: other | dose: 64.0 mg/kg/injection, schedule: Q01DX009 (ip), vehicle: water
2 of 8: dose: 128.0 mg/kg/injection, schedule: Q01DX001 (ip), vehicle: other
3 of 8: dose: 32.0 mg/kg/injection, schedule: Q03HX016 (ip), vehicle: water
6 of 8: dose: 64.0 mg/kg/injection, schedule: Q03HX008 (sc), vehicle: water
1 of 8: dose: 32.0 mg/kg/injection, schedule: Q03HX024 (ip), vehicle: water | dose: 256.0 mg/kg/injection, schedule: Q08DX002 (ip), vehicle: other
8 of 8 (2×): dose: 4.0 mg/kg/injection, schedule: Q03HX008 (ip), vehicle: water
5 of 8: dose: 128.0 mg/kg/injection, schedule: Q08DX002 (ip), vehicle: other
7 of 8 and 8 of 8: dose: 8.0 mg/kg/injection, schedule: Q03HX008 (ip), vehicle: water
